Measured data: PubChem BioAssay AID1259308 (NCATS, 2017)
Purpose: 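Candidate targets for better recombinant protein yield in mammalian cells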 (primary screen). System: human HEK293 embryonic kidney cells stably expressing firefly luciferase (HEK-CMV-Luc2-Hygro). Knock-down reagent: single siRNA against human genes, 0.8 pmol siRNA per well. Timing: 72 h. Measured: 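Reporter luminescence and viable-cell signal on separate replicate plates, given as percent of non-targeting control and median/MAD z-scores, plus per-cell luciferase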. Direction: total luciferase, z-score and total luciferase, % of control: higher = more reporter protein produced; luciferase per cell, z-score: higher = more reporter output per viable cell; viable cells, % of control: higher = more viable cells. Call rule: 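Active when the median/MAD z-score for overall luciferase is greater than 3; a gene was taken forward for validation with new siRNAs if at least two of its three siRNAs passed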. Meaning of the calls: active = raised luciferase; inactive = no rise.
Here is a random part of about 59,000 reagents tested. In the full data, about 1,510 (2.6%) got an active call. 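Calls use total luciferase alone and ignore viability, so some active siRNAs may act by altering cell number.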 Entries without a mark were called inactive. The numbers tell different reagents against one gene apart.

| gene knocked down | reagent | total luciferase, z-score | total luciferase, % of control | luciferase per cell, z-score | viable cells, % of control |
| --- | --- | --- | --- | --- | --- |
| AMDHD1 | 1 | 0.698 | 95.8 | 0.626 | 90.8 |
| AMDHD1 | 2 | -0.0879 | 80.1 | -0.0025 | 89.6 |
| AMDHD1 | 3 | 0.795 | 97.7 | 0.855 | 87.2 |
| BIN2 | 1 | -0.398 | 74 | -0.258 | 88.5 |
| BIN2 | 2 | 3.05 (active) | 143 | 2.38 | 85.2 |
| BIN2 | 3 | 0.372 | 89.3 | 0.913 | 78.5 |
| SNCA-AS1 | 1 | -0.18 | 78.3 | -0.125 | 90.4 |
| SNCA-AS1 | 2 | 0.192 | 85.7 | 0.741 | 78.8 |
| SNCA-AS1 | 3 | 2.16 | 125 | 1.75 | 87.9 |
| AKAP13 | 1 | 5.76 (active) | 196 | 3.15 | 95.7 |
| AKAP13 | 2 | 0.21 | 86.1 | 0.444 | 85.6 |
| AKAP13 | 3 | 1.53 | 112 | 1.59 | 82.7 |
| ADAM17 | 1 | -0.972 | 62.5 | -0.732 | 84.7 |
| ADAM17 | 2 | -0.0191 | 81.5 | -0.194 | 95.9 |
| ADAM17 | 3 | -0.414 | 73.7 | -0.765 | 101 |
| EXPH5 | 1 | 1.36 | 109 | 0.764 | 99.5 |
| EXPH5 | 2 | 0.405 | 90 | 0.0543 | 99.1 |
| EXPH5 | 3 | -0.277 | 76.4 | -0.752 | 104 |
| CAPNS1 | 1 | 1.89 | 119 | 1.31 | 94.7 |
| CAPNS1 | 2 | -0.00317 | 81.8 | 0.118 | 88.6 |
| CAPNS1 | 3 | 0.864 | 99.1 | 0.801 | 89.7 |
| PITRM1 | 1 | 0.848 | 98.7 | 0.803 | 89.3 |
| PITRM1 | 2 | 0.996 | 102 | 1.06 | 86 |
| PITRM1 | 3 | 0.543 | 92.7 | 0.414 | 92.9 |
| LHFPL1 | 1 | 1.94 | 121 | 1.94 | 80.8 |
| LHFPL1 | 2 | -0.312 | 75.7 | 0.832 | 67.9 |
| LHFPL1 | 3 | 0.296 | 87.8 | -0.327 | 107 |
| CTRB2 | 1 | 0.991 | 102 | 1.28 | 81 |
| CTRB2 | 2 | -0.469 | 72.6 | 0.0435 | 80.2 |
| CTRB2 | 3 | -0.427 | 73.4 | 0.55 | 70.9 |
| SYTL5 | 1 | -1.08 | 60.5 | -0.945 | 86.7 |
| SYTL5 | 2 | -1.08 | 60.5 | -0.972 | 87.3 |
| SYTL5 | 3 | 3.54 (active) | 152 | 2.38 | 91 |
| AKTIP | 1 | -1.41 | 53.8 | -1.34 | 85.6 |
| AKTIP | 2 | 1.7 | 116 | 0.873 | 103 |
| AKTIP | 3 | -1.47 | 52.7 | -0.757 | 71.9 |
| TGDS | 1 | 0.182 | 85.5 | 0.33 | 87.6 |
| TGDS | 2 | 1.47 | 111 | 1.71 | 79 |
| TGDS | 3 | -1.56 | 50.8 | -1.57 | 85.8 |
| SCP2D1 | 1 | 0.601 | 93.8 | 0.979 | 81 |
| SCP2D1 | 2 | 0.538 | 92.6 | 0.355 | 94.2 |
| SCP2D1 | 3 | 0.31 | 88.1 | 0.918 | 77.3 |
| USH1C | 1 | 0.311 | 88.1 | 0.968 | 76.3 |
| USH1C | 2 | 1.5 | 112 | 1.58 | 82.4 |
| USH1C | 3 | 1.15 | 105 | 0.0817 | 115 |
| FAAHP1 | 1 | -0.843 | 65.1 | -0.823 | 90.4 |
| FAAHP1 | 2 | -0.293 | 76.1 | 0.811 | 68.6 |
| FAAHP1 | 3 | -0.177 | 78.4 | 0.873 | 69.6 |
| CDR1 | 1 | 0.757 | 96.9 | 1.39 | 75.1 |
| CDR1 | 2 | -0.172 | 78.5 | 0.782 | 71.4 |
| CDR1 | 3 | 0.411 | 90.1 | 0.785 | 81.8 |
| KNTC1 | 1 | 0.446 | 90.8 | 1.45 | 69.3 |
| KNTC1 | 2 | -0.345 | 75 | -0.5 | 95.6 |
| KNTC1 | 3 | -0.0569 | 80.8 | -0.946 | 116 |
| EIF5 | 1 | 0.653 | 94.9 | 0.0161 | 106 |
| EIF5 | 2 | -0.179 | 78.3 | -0.594 | 102 |
| EIF5 | 3 | -1.01 | 61.8 | 0.344 | 63 |

In a second layout: entries from further up
gene knocked down,reagent,"total luciferase, z-score","total luciferase, % of control","luciferase per cell, z-score","viable cells, % of control"
LHFPL1,1,1.94,121,1.94,80.8
LHFPL1,2,-0.312,75.7,0.832,67.9
LHFPL1,3,0.296,87.8,-0.327,107
